The other results are listed elsewhere or left out.
Key:
Assay in all cases: glycan array binding signal (z-score within array); higher = stronger binding
Conditions in all cases: glycan notation: IUPAC condensed, linker removed
[1] = molecular target: Neu5Ac(a2-3)Gal(b1-4)[Fuc(a1-3)]GlcNAc(b1-3)GalNAc
How it was run: (§1)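 Glycan array data came from 3228 arrays in the Consortium for Functional Glycomics database, and only arrays with an available protein sequence were kept. Glycan names were put into IUPAC-condensed notation, and columns mapping to the same glycan were averaged. The binding signal is a within-array Z-score, averaged across arrays of one protein sequence run at different concentrations or buffers and across linkers. A negative Z-score can be read as non-binding.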

[2] = molecular target: Neu5Ac(a2-3)Gal(b1-4)[Fuc(a1-3)]GlcNAc(b1-6)[Gal(b1-3)]GalNAc
How it was run: as §1

[3] = molecular target: Neu5Ac(a2-3)Gal(b1-4)[Fuc(a1-3)]GlcNAc(b1-6)[Neu5Ac(a2-3)Gal(b1-3)]GalNAc
How it was run: as §1

[4] = molecular target: Neu5Ac(a2-3)Gal(b1-4)[Fuc(a1-3)]GlcNAc6S
How it was run: as §1

[5] = molecular target: Neu5Ac(a2-3)Gal6S(b1-4)GlcNAc
How it was run: as §1

[6] = molecular target: Neu5Ac(a2-3)Gal6S(b1-4)[Fuc(a1-3)]GlcNAc
How it was run: as §1

[7] = molecular target: Neu5Ac(a2-3)GalNAc
How it was run: as §1

[8] = molecular target: Neu5Ac(a2-3)GalNAc(b1-4)GlcNAc
How it was run: as §1

[9] = molecular target: Neu5Ac(a2-3)[GalNAc(b1-4)]Gal(b1-4)Glc
How it was run: as §1

[10] = molecular target: Neu5Ac(a2-3)[GalNAc(b1-4)]Gal(b1-4)GlcNAc
How it was run: as §1

[11] = molecular target: Neu5Ac(a2-3)[GalNAc(b1-4)]Gal(b1-4)GlcNAc(b1-3)GalNAc
How it was run: as §1

[12] = molecular target: Neu5Ac(a2-3)[Neu5Ac(a2-6)]GalNAc
How it was run: as §1

[13] = molecular target: Neu5Ac(a2-6)Gal
How it was run: as §1

[14] = molecular target: Neu5Ac(a2-6)Gal(b1-3)GlcNAc(b1-3)[Gal(b1-4)GlcNAc(b1-6)]Gal(b1-4)Glc
How it was run: as §1

[15] = molecular target: Neu5Ac(a2-6)Gal(b1-4)Glc
How it was run: as §1

[16] = molecular target: Neu5Ac(a2-6)Gal(b1-4)GlcNAc
How it was run: as §1

[17] = molecular target: Neu5Ac(a2-6)Gal(b1-4)GlcNAc(b1-2)Man
How it was run: as §1

[18] = molecular target: Neu5Ac(a2-6)Gal(b1-4)GlcNAc(b1-2)Man(a1-3)Man(b1-4)GlcNAc(b1-4)GlcNAc
How it was run: as §1

[19] = molecular target: Neu5Ac(a2-6)Gal(b1-4)GlcNAc(b1-2)Man(a1-3)[Gal(b1-4)GlcNAc(b1-2)Man(a1-6)]Man(b1-4)GlcNAc(b1-4)GlcNAc
How it was run: as §1

[20] = molecular target: Neu5Ac(a2-6)Gal(b1-4)GlcNAc(b1-2)Man(a1-3)[GlcNAc(b1-2)Man(a1-6)]Man(b1-4)GlcNAc(b1-4)GlcNAc
How it was run: as §1

[21] = molecular target: Neu5Ac(a2-6)Gal(b1-4)GlcNAc(b1-2)Man(a1-3)[GlcNAc(b1-2)Man(b1-4)GlcNAc(b1-2)Man(a1-6)]Man(b1-4)GlcNAc(b1-4)GlcNAc
How it was run: as §1

[22] = molecular target: Neu5Ac(a2-6)Gal(b1-4)GlcNAc(b1-2)Man(a1-3)[GlcNAc(b1-4)][Neu5Ac(a2-6)Gal(b1-4)GlcNAc(b1-2)Man(a1-6)]Man(b1-4)GlcNAc(b1-4)GlcNAc
How it was run: as §1

[23] = molecular target: Neu5Ac(a2-6)Gal(b1-4)GlcNAc(b1-2)Man(a1-3)[Man(a1-6)]Man(b1-4)GlcNAc(b1-4)GlcNAc
How it was run: as §1

[24] = molecular target: Neu5Ac(a2-6)Gal(b1-4)GlcNAc(b1-2)Man(a1-3)[Neu5Ac(a2-3)Gal(b1-4)GlcNAc(b1-2)Man(a1-6)]Man(b1-4)GlcNAc(b1-4)GlcNAc
How it was run: as §1

[25] = molecular target: Neu5Ac(a2-6)Gal(b1-4)GlcNAc(b1-2)Man(a1-3)[Neu5Ac(a2-6)Gal(b1-4)GlcNAc(b1-2)Man(a1-6)]Man(b1-4)GlcNAc(b1-4)GlcNAc
How it was run: as §1

[26] = molecular target: Neu5Ac(a2-6)Gal(b1-4)GlcNAc(b1-2)Man(a1-3)[Neu5Ac(a2-6)Gal(b1-4)GlcNAc(b1-2)Man(a1-6)]Man(b1-4)GlcNAc(b1-4)[Fuc(a1-6)]GlcNAc
How it was run: as §1

[27] = molecular target: Neu5Ac(a2-6)Gal(b1-4)GlcNAc(b1-2)Man(a1-6)Man(b1-4)GlcNAc(b1-4)GlcNAc
How it was run: as §1

[28] = molecular target: Neu5Ac(a2-6)Gal(b1-4)GlcNAc(b1-2)Man(a1-6)[Gal(b1-4)GlcNAc(b1-2)Man(a1-3)]Man(b1-4)GlcNAc(b1-4)GlcNAc
How it was run: as §1

[29] = molecular target: Neu5Ac(a2-6)Gal(b1-4)GlcNAc(b1-2)Man(a1-6)[GlcNAc(b1-2)Man(a1-3)]Man(b1-4)GlcNAc(b1-4)GlcNAc
How it was run: as §1

[30] = molecular target: Neu5Ac(a2-6)Gal(b1-4)GlcNAc(b1-2)Man(a1-6)[Man(a1-3)]Man(b1-4)GlcNAc(b1-4)GlcNAc
How it was run: as §1

[31] = molecular target: Neu5Ac(a2-6)Gal(b1-4)GlcNAc(b1-2)[Neu5Ac(a2-6)Gal(b1-4)GlcNAc(b1-4)]Man(a1-3)[GlcNAc(b1-4)][Neu5Ac(a2-6)Gal(b1-4)GlcNAc(b1-2)[Neu5Ac(a2-6)Gal(b1-4)GlcNAc(b1-6)]Man(a1-6)]Man(b1-4)GlcNAc(b1-4)GlcNAc
How it was run: as §1

[32] = molecular target: Neu5Ac(a2-6)Gal(b1-4)GlcNAc(b1-2)[Neu5Ac(a2-6)Gal(b1-4)GlcNAc(b1-4)]Man(a1-3)[GlcNAc(b1-4)][Neu5Ac(a2-6)Gal(b1-4)GlcNAc(b1-4)Man(a1-6)]Man(b1-4)GlcNAc(b1-4)GlcNAc
How it was run: as §1

[33] = molecular target: Neu5Ac(a2-6)Gal(b1-4)GlcNAc(b1-2)[Neu5Ac(a2-6)Gal(b1-4)GlcNAc(b1-6)]Man(a1-6)[Neu5Ac(a2-6)Gal(b1-4)GlcNAc(b1-2)Man(a1-3)][GlcNAc(b1-4)]Man(b1-4)GlcNAc(b1-4)GlcNAc
How it was run: as §1

[34] = molecular target: Neu5Ac(a2-6)Gal(b1-4)GlcNAc(b1-3)Gal(b1-3)GlcNAc
How it was run: as §1

[35] = molecular target: Neu5Ac(a2-6)Gal(b1-4)GlcNAc(b1-3)Gal(b1-4)GlcNAc
How it was run: as §1

[36] = molecular target: Neu5Ac(a2-6)Gal(b1-4)GlcNAc(b1-3)Gal(b1-4)GlcNAc(b1-2)Man(a1-3)[Neu5Ac(a2-6)Gal(b1-4)GlcNAc(b1-3)Gal(b1-4)GlcNAc(b1-2)Man(a1-6)]GalNAc
How it was run: as §1

[37] = molecular target: Neu5Ac(a2-6)Gal(b1-4)GlcNAc(b1-3)Gal(b1-4)GlcNAc(b1-3)Gal(b1-4)GlcNAc
How it was run: as §1

[38] = molecular target: Neu5Ac(a2-6)Gal(b1-4)GlcNAc(b1-3)Gal(b1-4)GlcNAc(b1-3)Gal(b1-4)GlcNAc(b1-2)Man(a1-3)[Neu5Ac(a2-6)Gal(b1-4)GlcNAc(b1-3)Gal(b1-4)GlcNAc(b1-3)Gal(b1-4)GlcNAc(b1-2)Man(a1-6)]GalNAc
How it was run: as §1

[39] = molecular target: Neu5Ac(a2-6)Gal(b1-4)GlcNAc(b1-3)Gal(b1-4)GlcNAc(b1-3)GalNAc
How it was run: as §1

[40] = molecular target: Neu5Ac(a2-6)Gal(b1-4)GlcNAc(b1-3)Gal(b1-4)GlcNAc(b1-3)[Neu5Ac(a2-6)Gal(b1-4)GlcNAc(b1-3)Gal(b1-4)GlcNAc(b1-6)]GalNAc
How it was run: as §1

[41] = molecular target: Neu5Ac(a2-6)Gal(b1-4)GlcNAc(b1-3)Gal(b1-4)GlcNAc(b1-6)[Gal(b1-3)]GalNAc
How it was run: as §1

[42] = molecular target: Neu5Ac(a2-6)Gal(b1-4)GlcNAc(b1-3)Gal(b1-4)[Fuc(a1-3)]GlcNAc(b1-3)Gal(b1-4)[Fuc(a1-3)]GlcNAc
How it was run: as §1

B1: Gal 10 (Homo sapiens), Q05315 (protein)
chain: MSLLPVPYTEAASLSTGSTVTIKGRPLVCFLNEPYLQVDFHTEMKEESDIVFHFQVCFGRRVVMNSREYGAWKQQVESKNMPFQDGQEFELSISVLPDKYQVMVNGQSSYTFDHRIKPEAVKMVQVWRDISLTKFNVSYLKR
- glycan array binding signal (z-score) [1]: 1.77
- glycan array binding signal (z-score) [2]: 1.08
- glycan array binding signal (z-score) [3]: -0.065
- glycan array binding signal (z-score) [4]: -0.32
- glycan array binding signal (z-score) [5]: -0.415
- glycan array binding signal (z-score) [6]: -0.196
- glycan array binding signal (z-score) [7]: -0.775
- glycan array binding signal (z-score) [8]: 0.108
- glycan array binding signal (z-score) [9]: -0.169
- glycan array binding signal (z-score) [10]: -0.148
- glycan array binding signal (z-score) [11]: 0.044
- glycan array binding signal (z-score) [12]: 0.218
- glycan array binding signal (z-score) [13]: -0.001
- glycan array binding signal (z-score) [14]: -0.319
- glycan array binding signal (z-score) [15]: -0.381
- glycan array binding signal (z-score) [16]: -0.362
- glycan array binding signal (z-score) [17]: -0.725
- glycan array binding signal (z-score) [18]: -0.164
- glycan array binding signal (z-score) [19]: 0.089
- glycan array binding signal (z-score) [20]: -0.609
- glycan array binding signal (z-score) [21]: 0.105
- glycan array binding signal (z-score) [22]: -0.479
- glycan array binding signal (z-score) [23]: -0.25
- glycan array binding signal (z-score) [24]: -0.596
- glycan array binding signal (z-score) [25]: 0.509
- glycan array binding signal (z-score) [26]: -0.156
- glycan array binding signal (z-score) [27]: -0.652
- glycan array binding signal (z-score) [28]: 0.567
- glycan array binding signal (z-score) [29]: 0.248
- glycan array binding signal (z-score) [30]: -0.308
- glycan array binding signal (z-score) [31]: 0.323
- glycan array binding signal (z-score) [32]: 2.9
- glycan array binding signal (z-score) [33]: -0.595
- glycan array binding signal (z-score) [34]: -0.312
- glycan array binding signal (z-score) [35]: 0.008
- glycan array binding signal (z-score) [36]: 0.336
- glycan array binding signal (z-score) [37]: -0.967
- glycan array binding signal (z-score) [38]: 3.41
- glycan array binding signal (z-score) [39]: 0.199
- glycan array binding signal (z-score) [40]: -0.52
- glycan array binding signal (z-score) [41]: -0.176
- glycan array binding signal (z-score) [42]: -0.201
